The nature of the assay: qHTS Assay for Modulators of Lamin A Splicing. The conditions noted are these: HeLa LMNA splicing GFP/RFP minigene ratio, 48 h. The method, boiled down: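 S3 HeLa cells stably expressing lamin A-EGFP splicing minigene plus DsRed2, 600 cells/well, 48 h compound exposure at 37C. Laser-scanning cytometry; analysed as GFP (500-530 nm)/RFP (575-640 nm) total intensity ratio; 0.5% DMSO vehicle.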

Setting [1] is: measured here: GFP splicing reporter channel.
The mark [2] stands for this setting: measured here: RFP viability control channel.

SMILES strings stand for the structures. Some of the results follow. Further columns of the screen follow, without active or inactive calls. Most of these compounds were active or inconclusive in the main read-out, so they are no random draw. Words in brackets tell the shape of the fitted curve; partial curves, single points and poor fits give uncertain potencies.

With `CN(C)S(=O)(=O)N1CCN(c2ccc([N+](=O)[O-])c(N3CCCCC3)c2)CC1`, the AC50 under setting [1] was 0.631 µM [rising, full curve, poor fit].

Consider `Cc1ccc(N2CCN(C(=O)c3cnn(-c4ccc(C)c(C)c4)c3C3CCNCC3)CC2)c(C)c1`, for which the AC50 is, setting by setting: under setting [1], 15.8 µM [falling, partial curve, poor fit]; under setting [2], 22.4 µM [falling, partial curve].

As to `N#Cc1cc(N)ccc1-n1cccc1`, the AC50 reads like this: under setting [1], 35.5 µM [falling, single point]; under setting [2], 35.5 µM [falling, single point].

For the molecule `Cc1cc(C)nc(-n2nc(C)c(Sc3ccc(F)cc3)c2N)n1`, the AC50 under setting [2] is 14.1 µM [rising, single point].

`COc1ccc(C=O)cc1COc1ccc(Cl)cc1[N+](=O)[O-]`: under setting [2], the AC50 is 0.0398 µM [falling, partial curve].

Consider `COc1ccc(/C=N/NC(=O)c2[nH]nc3c2CCc2ccccc2-3)cc1OC`, for which the concentration at half-maximal activity (AC50) under setting [2] is 15.8 µM [rising, single point].

Consider `O=C(Nc1ccc(N2CCOCC2)cc1)Nc1ccc(Cl)c(Cl)c1`, for which the AC50 under setting [2] is 31.6 µM [rising, single point].

For `CC1CCCCN1c1ncnc2ccccc12` (stereo not given), the AC50 runs as follows: under setting [1], 20 µM [rising, partial curve]; under setting [2], 12.6 µM [rising, partial curve].

On to `O=C(c1ccc2c(c1)N(Cc1cccc(Cl)c1)C(=O)c1ccccc1S2=O)N1CCN(c2cccc(C(F)(F)F)c2)CC1` (stereo not given), for which the AC50 under setting [1] is 5.01 µM [falling, partial curve] and the AC50 under setting [2] was 0.891 µM [falling, partial curve, poor fit].

Take `COc1cc(/C=C/C(=O)N2c3ccccc3Sc3ccc(C(F)(F)F)cc32)cc(OC)c1OC`: the AC50 under setting [1] is 12.6 µM [rising, single point] and the AC50 under setting [2] was 25.1 µM [rising, single point].

As for `O=c1cc(N2CCCCC2)c(-c2ccccc2)nn1Cc1c(Cl)cccc1Cl`, the AC50 is, setting by setting: under setting [1], 15.8 µM [falling, single point]; under setting [2], 12.6 µM [falling, partial curve].

`O=C(Cn1c(=O)n2nc(-c3cccc(F)c3)nc2c2ccccc21)N1CCN(c2ccc(F)cc2)CC1`: the AC50 under setting [2] was 6.31 µM [falling, single point].

Consider `CCCCn1c(=N)n(CCOc2ccc(C)cc2)c2ccccc21`, for which the AC50 reads like this: under setting [1], 35.5 µM [rising, single point]; under setting [2], 35.5 µM [rising, single point].

Take `Cn1c(=O)c2c(ncn2Cc2ccc(Cl)cc2)n(C)c1=O`: the AC50 under setting [2] is 0.0158 µM [falling, full curve, poor fit].

Consider `c1ccc(N2CCN(c3nc(-c4ccccn4)nc4ccccc34)CC2)cc1`, for which, under setting [1], the AC50 was 3.16 µM [rising, full curve, poor fit].

`Cc1ccc(S(=O)(=O)N(C)CC(=O)Nc2nc3ccccc3s2)cc1`: the AC50 under setting [2] was 20 µM [rising, partial curve, poor fit].

With `Cc1ccc(-n2ncc3c(=O)n(Cc4cccnc4)cnc32)cc1`, the AC50 was 12.6 µM [rising, single point] under setting [1] and 31.6 µM [rising, single point] under setting [2].

Take `O=C(O)C12CC3CC(C1)CC(n1ncc(NCc4ccccc4)c(Cl)c1=O)(C3)C2`: the AC50 under setting [1] was 35.5 µM [rising, single point].

As for `CC(C)(C)NC(=O)C(c1ccncc1)N(Cc1cccs1)C(=O)Cn1nnc(-c2ccc(F)cc2)n1` (stereo not given), the AC50 runs as follows: under setting [1], 35.5 µM [falling, single point]; under setting [2], 11.2 µM [rising, partial curve, poor fit].

With `COCCCN=C1NN=C(c2cc(C)n(Cc3ccco3)c2C)CS1`, the AC50 is 4.47 µM [rising, full curve, poor fit] under setting [1] and 2.82 µM [rising, full curve] under setting [2].

Regarding `N#CC(c1cccc(Cl)c1)c1ccc2c(C(F)(F)F)cc(C(F)(F)F)nc2n1` (stereo not given), the AC50 is, setting by setting: under setting [1], 3.55 µM [rising, partial curve]; under setting [2], 8.91 µM [rising, partial curve, poor fit].

Take `Cc1cccc(N2CCN(C(=O)c3noc4c3CCCCC4)CC2)c1C`: the AC50 under setting [1] is 35.5 µM [falling, partial curve, poor fit].

Turning to `Cc1ccc(-n2ncc(C(=O)Nc3cc(Cl)ccc3Cl)c2C2CCNCC2)cc1`, the AC50 under setting [1] is 31.6 µM [falling, single point].

As to `O=c1[nH]n2c(=O)c3c([nH]c2c1N=Nc1cccc(Cl)c1)CCCC3`, under setting [2], the AC50 was 0.891 µM [rising, full curve, poor fit].

Take `COc1ccc(C(=O)CSc2nnc(-c3cc4ccccc4cc3O)n2Cc2ccco2)cc1`: the AC50 under setting [2] was 10 µM [rising, partial curve, poor fit].

As for `COc1ccc(C2C3=C(CCCC3=O)Nc3nc(-c4cc(OC)c(OC)c(OC)c4)nn32)cc1OC` (stereo not given), the AC50 under setting [2] is 8.91 µM [rising, partial curve, poor fit].

In the case of `COCCCNC(=O)c1ccc(CN2CCc3ccccc3C2)cc1`, the AC50 under setting [2] was 4.47 µM [falling, full curve, poor fit].

Consider `O=C1Nc2ccc(Br)cc2C12NNc1ccccc1O2` (stereo not given), for which the AC50 is, setting by setting: under setting [1], 35.5 µM [rising, single point]; under setting [2], 25.1 µM [rising, single point].

Turning to `CCC(CC)c1nnc(NC(=O)c2cc(-c3ccccc3)nc3ccccc23)s1`, the AC50 under setting [2] was 35.5 µM [rising, single point].

Consider `Cc1noc(C)c1-c1nccc(NCc2cccs2)n1`, for which the AC50 runs as follows: under setting [1], 6.31 µM [falling, partial curve]; under setting [2], 3.98 µM [falling, partial curve].

As to `CNC(=O)[C@@H]1C[C@H]1[C@@H](NC(=O)OCc1ccccc1)c1ccccc1`, under setting [2], the AC50 was 35.5 µM [rising, single point].

For the molecule `COc1cc(C(=O)NCc2nc3cccnc3n2Cc2ccc(C)cc2)cc(OC)c1OC`, the AC50 under setting [2] was 0.0316 µM [falling, full curve, poor fit].

With `Oc1ccc(-c2nc3ccc4ccccc4c3c3c2CCC3)cc1O`, under setting [1], the AC50 was 11.2 µM [falling, partial curve, poor fit].

For `Cc1ccc(-n2nc(C)c(/C=N/NC(=O)c3cccnc3)c2Cl)cc1`, the AC50 under setting [1] is 0.0251 µM [rising, full curve, poor fit].

Consider `CCOC(=O)C1=C(c2ccccc2)NC(=O)NC1c1ccc(N(C)C)cc1` (stereo not given), for which the AC50 under setting [1] is 14.1 µM [rising, single point].

With `N#Cc1c2c(c(-c3ccccc3Cl)[nH]c1=S)CCCC2`, the AC50 under setting [1] is 1.78 µM [falling, full curve, poor fit].

In the case of `Cc1ccc(Nc2nc(N)nc(CSc3nc4ccccc4s3)n2)cc1`, the AC50 reads like this: under setting [1], 20 µM [falling, single point]; under setting [2], 25.1 µM [falling, single point].

Turning to `Cc1ccc2sc(N(CCCN(C)C)C(=O)c3ccc(Br)s3)nc2c1C`, the AC50 under setting [2] was 28.2 µM [falling, single point].

Take `Cc1nc(CNS(=O)(=O)c2ccc(Oc3ccccc3)cc2)cs1`: the AC50 runs as follows: under setting [1], 3.16 µM [rising, single point]; under setting [2], 2.82 µM [rising, full curve].

On to `Cc1ccc(S(=O)(=O)N2CCC(=O)N(C(COC(=O)Nc3ccccc3)Cc3ccccc3)CC2)cc1` (stereo not given), for which the AC50 under setting [2] is 6.31 µM [rising, full curve, poor fit].

Take `O=C(NCc1ccco1)c1csc2c1CCCC2`: the AC50 by setting is: under setting [1], 1.41 µM [rising, partial curve]; under setting [2], 0.398 µM [rising, full curve, poor fit].

Regarding `O=C(NCCN1CCN(C(=O)c2cccs2)CC1)C(=O)Nc1ccc(Br)cc1`, the AC50 runs as follows: under setting [1], 31.6 µM [rising, single point]; under setting [2], 28.2 µM [rising, single point].

Consider `Cc1ccc(CNC(=O)CO/N=C/c2ccc(C(C)(C)C)cc2)cc1`, for which, under setting [2], the AC50 is 28.2 µM [rising, single point].

Consider `COC(=O)c1ccc(OC)c(CSc2nnc(COc3ccccc3)o2)c1`, for which, under setting [2], the half-maximal activity concentration (AC50) was 11.2 µM [rising, single point].

In the case of `COC1=C(Nc2ccccc2)C(=O)c2ccccc2C1=O`, the AC50 under setting [1] is 22.4 µM [rising, single point] and the AC50 under setting [2] is 20 µM [rising, single point].

Consider `Cc1ccccc1Nc1nn2c(=O)c3ccc(C(=O)NCc4cccs4)cc3nc2s1`, for which the AC50 runs as follows: under setting [1], 0.2 µM [rising, full curve]; under setting [2], 0.251 µM [rising, partial curve].

With `Cc1ccc(S(=O)(=O)N2CCCC(C(=O)NCCc3ccc4c(c3)OCO4)C2)cc1` (stereo not given), the AC50 by setting is: under setting [1], 7.94 µM [rising, partial curve]; under setting [2], 12.6 µM [rising, partial curve].

Turning to `CS(=O)(=O)N(CCc1ccccc1)CC(=O)N1CCN(c2ccc(F)cc2)CC1`, the AC50 under setting [1] is 17.8 µM [rising, single point] and the AC50 under setting [2] was 25.1 µM [rising, single point].

On to `Cc1cc(C)cc(NC(=O)CSc2ccc(-c3cccs3)nn2)c1`, for which the AC50 under setting [2] is 15.8 µM [rising, single point].

For `CCOC(=O)c1ccc2ncc(C(=O)OCC)c(Nc3ccc(N4CCOCC4)cc3)c2c1`, the AC50 under setting [1] is 7.94 µM [falling, partial curve, poor fit].

Take `O=[N+]([O-])c1ccccc1NCCNS(=O)(=O)c1ccc(Cl)cc1`: under setting [2], the AC50 was 14.1 µM [rising, single point].

`Cc1ccc(-c2cc(-c3ccccc3)c(C#N)c(N)n2)o1`: the AC50 under setting [2] is 0.708 µM [rising, full curve, poor fit].

On to `COc1ccc(OCC(O)Cn2c(=N)n(CCN3CCCCC3)c3ccccc32)cc1` (stereo not given), for which the AC50 under setting [2] is 35.5 µM [rising, single point].

As to `COc1ccc(CCNc2ncnc3c2cnn3-c2ccc(C)c(Cl)c2)cc1`, under setting [2], the AC50 is 8.91 µM [rising, partial curve].

As usually defined, the AC50 is the midpoint of the concentration-response curve, whichever way the signal moves.

The values above are taken from PubChem BioAssay AID1487 (National Center for Advancing Translational Sciences (NCATS), 2009).
